Experimental data published in publication doi:10.1101/2024.02.12.579870.
These are yes or no findings as the source states them, for the method shown. Binding seen in cells or lysates may run through a third protein. Some binding calls cover weakened binding; strength is not graded here.

Amino acid sequences for entries named in this document (tags omitted). A change or cut given only in a name is not applied to a line headed by its entry.
UniProt O43681: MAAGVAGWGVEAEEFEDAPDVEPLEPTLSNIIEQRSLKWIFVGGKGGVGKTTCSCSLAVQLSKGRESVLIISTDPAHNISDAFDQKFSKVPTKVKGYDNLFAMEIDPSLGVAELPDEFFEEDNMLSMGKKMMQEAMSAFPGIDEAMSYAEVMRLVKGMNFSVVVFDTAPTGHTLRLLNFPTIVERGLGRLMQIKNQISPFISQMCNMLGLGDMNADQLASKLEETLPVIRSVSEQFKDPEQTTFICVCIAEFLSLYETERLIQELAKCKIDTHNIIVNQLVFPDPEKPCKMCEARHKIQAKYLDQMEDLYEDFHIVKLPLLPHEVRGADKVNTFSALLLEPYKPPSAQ
UniProt Q9HD20: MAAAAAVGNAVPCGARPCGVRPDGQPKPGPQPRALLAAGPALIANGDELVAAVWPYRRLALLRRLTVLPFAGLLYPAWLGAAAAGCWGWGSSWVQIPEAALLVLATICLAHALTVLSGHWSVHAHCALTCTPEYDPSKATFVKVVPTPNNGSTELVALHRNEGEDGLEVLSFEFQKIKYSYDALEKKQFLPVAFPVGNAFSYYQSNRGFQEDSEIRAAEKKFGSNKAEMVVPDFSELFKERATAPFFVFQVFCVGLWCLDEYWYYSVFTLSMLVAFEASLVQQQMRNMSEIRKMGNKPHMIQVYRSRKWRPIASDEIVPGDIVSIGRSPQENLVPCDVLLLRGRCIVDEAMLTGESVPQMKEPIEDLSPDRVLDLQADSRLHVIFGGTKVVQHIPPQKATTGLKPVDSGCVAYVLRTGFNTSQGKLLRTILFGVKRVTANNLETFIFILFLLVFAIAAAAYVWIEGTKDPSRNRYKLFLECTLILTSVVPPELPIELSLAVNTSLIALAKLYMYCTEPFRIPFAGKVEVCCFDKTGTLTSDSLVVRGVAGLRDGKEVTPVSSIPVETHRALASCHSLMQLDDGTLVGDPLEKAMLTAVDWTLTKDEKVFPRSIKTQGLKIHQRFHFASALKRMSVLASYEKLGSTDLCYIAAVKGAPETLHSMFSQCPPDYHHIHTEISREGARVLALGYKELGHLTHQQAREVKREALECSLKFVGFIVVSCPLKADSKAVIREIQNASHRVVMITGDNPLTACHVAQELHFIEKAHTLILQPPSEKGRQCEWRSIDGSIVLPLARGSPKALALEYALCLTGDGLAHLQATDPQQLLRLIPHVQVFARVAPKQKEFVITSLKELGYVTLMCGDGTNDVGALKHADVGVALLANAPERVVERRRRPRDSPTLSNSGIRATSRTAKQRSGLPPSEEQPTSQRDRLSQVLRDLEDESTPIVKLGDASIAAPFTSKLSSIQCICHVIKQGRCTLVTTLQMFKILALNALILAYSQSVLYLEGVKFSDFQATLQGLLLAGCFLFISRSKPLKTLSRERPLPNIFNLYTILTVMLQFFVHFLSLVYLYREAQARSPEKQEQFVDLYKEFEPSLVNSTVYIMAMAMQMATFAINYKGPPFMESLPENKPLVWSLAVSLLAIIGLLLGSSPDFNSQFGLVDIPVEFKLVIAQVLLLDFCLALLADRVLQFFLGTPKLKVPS

Biological target: GET3 (human (endogenous in HEK293FT)) (UniProt O43681)
Experiment: co-IP

Substance: ATP13A1 (wild type, expressed from a plasmid) (from UniProt Q9HD20 1-1204) (enzyme)
- binding: binds

Substance: ATP13A1(D533N) (from UniProt Q9HD20 1-1204) (enzyme)
- binding: binds
